Data from article PMC9321536.
Where a chain is given by its changes, count along the chain named. No constants are given. Whether binding was seen depends on the method and setting. Binding seen in cells or lysates may run through a third protein. Binding can be weak; no strength is given. Tags and fused reporters may be left off the sequences shown.

Legend:
Test in all cases: co-IP; lysates of HEK 293T cells transfected with myc-tagged wild-type or mutated SUCNR1; precleared, SUCNR1 precipitated (methods: anti-SUCNR1 antibody and protein A/G-Sepharose at 4 °C; legend of Figure 5B: anti-myc antibody); washes with 0.7 M NaCl, no SDS; Western blot for RAB2, RAB11, COX-2
[1] = target: T1, SUCNR1 N168A (myc-tagged) (human) (UniProt Q9BXA5)
T1 sequence (chain, N-glycosylated at N8): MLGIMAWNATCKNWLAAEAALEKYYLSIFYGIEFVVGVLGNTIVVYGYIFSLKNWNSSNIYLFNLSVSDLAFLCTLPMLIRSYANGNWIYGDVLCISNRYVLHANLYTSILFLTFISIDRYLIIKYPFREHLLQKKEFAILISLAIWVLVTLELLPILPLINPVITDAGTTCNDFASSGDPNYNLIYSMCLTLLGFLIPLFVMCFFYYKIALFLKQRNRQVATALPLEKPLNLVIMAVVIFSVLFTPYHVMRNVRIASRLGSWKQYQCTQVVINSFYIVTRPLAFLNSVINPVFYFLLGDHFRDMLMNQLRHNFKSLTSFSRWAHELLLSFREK

[2] = target: T2, SUCNR1 N8A (myc-tagged) (human) (UniProt Q9BXA5)
T2 sequence (chain, N-glycosylated at N168): T1 sequence (chain, N-glycosylated at N8) with N8A, A168N

[3] = target: T3, wild-type SUCNR1 (myc-tagged) (human) (UniProt Q9BXA5)
T3 sequence (chain, N-glycosylated at N8 and N168): T1 sequence (chain, N-glycosylated at N8) with A168N

| Substance | binding [1] | binding [2] | binding [3] |
| --- | --- | --- | --- |
| RAB11 (human (endogenous in HEK 293T)) | no binding | binds | no binding |
| RAB2 (human (endogenous in HEK 293T)) | binds | binds weakly | binds |
